From publication PMC6440935, “Characterization and phase I study of CLR457, an orally bioavailable pan-class I PI3-kinase inhibitor” (Investigational New Drugs, 2018)

Test system: advanced solid tumors with PI3K pathway activation
Assay: First-in-human phase I study: efficacy (RECIST v1.1)
Assay type: in vivo
Protocol: Efficacy assessments including overall response rate (ORR) and disease control rate (DCR) were analyzed as per RECIST v1.1 by local investigator interpretation based on interval imaging every 2 cycles.

## C[C@H]1OC(=O)N(c2cc(-c3cnc(N)nc3C(F)(F)F)nc(N3CCOCC3)n2)[C@H]1CO [CLR457]
5 mg, N = 2
  Best overall response: Not evaluable: 0 n (%)
10 mg, N = 3
  Best overall response: Not evaluable: 0 n (%)
20 mg, N = 4
  Best overall response: Not evaluable: 0 n (%)
40 mg, N = 5
  Best overall response: Not evaluable: 0 n (%)
70 mg, N = 6
  Best overall response: Not evaluable: 1 (16.7) n (%)
100mg, N = 11
  Best overall response: Not evaluable: 3 (27.3) n (%)
All Patients, N = 31
  Best overall response: Not evaluable: 4 (12.9) n (%)
